According to US20240277861A1, “ANTI-HEPATITIS B VIRUS AGENT TARGETING HOST FACTOR LIPG” (PUROTECH BIO, INC., priority 2021, published 2024):
No constants are given. Whether binding was seen depends on the method and setting. In cells and extracts the contact can be indirect. Some results given as binding are weak or reduced against the parent protein; the word gives no strength. Sequences can lack the tags named with a protein.

Molecular target: T1, LIPG-BioFLAGHis (Klebsiella pneumoniae) (UniProt P13187)
T1 sequence (chain, biotinylated on the biotinylation sequence (Bio-tag)): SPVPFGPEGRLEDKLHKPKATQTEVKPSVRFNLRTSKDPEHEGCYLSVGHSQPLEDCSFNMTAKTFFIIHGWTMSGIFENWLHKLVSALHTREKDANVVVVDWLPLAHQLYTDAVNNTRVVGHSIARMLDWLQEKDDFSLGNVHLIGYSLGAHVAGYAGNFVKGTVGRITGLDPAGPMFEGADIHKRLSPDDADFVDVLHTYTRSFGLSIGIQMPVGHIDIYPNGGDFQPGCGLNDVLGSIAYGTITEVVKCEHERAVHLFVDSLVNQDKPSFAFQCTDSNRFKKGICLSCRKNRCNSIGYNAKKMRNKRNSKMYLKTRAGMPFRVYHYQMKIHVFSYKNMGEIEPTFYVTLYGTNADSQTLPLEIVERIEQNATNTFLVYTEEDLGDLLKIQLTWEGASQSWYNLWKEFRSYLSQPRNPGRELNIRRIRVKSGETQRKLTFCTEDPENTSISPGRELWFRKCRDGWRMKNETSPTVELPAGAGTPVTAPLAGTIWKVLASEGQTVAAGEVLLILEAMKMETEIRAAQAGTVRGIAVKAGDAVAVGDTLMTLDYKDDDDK
Test: pull-down: biotinylated full-length LIPG on streptavidin beads, culture supernatant containing expressed N4BP1, T7-tag HRP western blot, against no bait

B1: N4BP1 (NEDD4 Binding Protein 1) (enzyme)
chain: MAARAVLDEFTAPAEKAELLEQSRGRIEGLFGVSLAVLGALGAEEPLPARIWLQLCGAQEAVHSAKEYIKGICEPELEERECYPKDMHCIFVGAESLFLKSLIQDTCADLCILDIGLLGIRGSAEAVVMARSHIQQFVKLFENKENLPSSQKESEVKREFKQFVEAHADNYTMDLLILPTSLKKELLTLTQGEENLFETGDDEVIEMRDSQQTEFTQNAATGLNISRDETVLQEEARNKAGTPVSELTKQMDTVLSSSPDVLFDPINGLTPDEEALSNERICQKRRFSDSEERHTKKQFSLENVQEGEILHDAKTLAGNVIADLSDSSADSENLSPDIKETTEEMEYNILVNFFKTMGYSQEIVEKVIKVYGPSTEPLLLLEEIEKENKRFQEDREFSAGTVYPETNKTKNKGVYSSTNELTTDSTPKKTQAHTQQNMVEKFSQLPFKVEAKPCTSNCRINTFRTVPIEQKHEVWGSNQNYICNTDPETDGLSPSVASPSPKEVNFVSRGASSHQPRVPLFPENGLHQQPEPLLPNNMKSACEKRLGCCSSPHSKPNCSTLSPPMPLPQLLPSVTDARSAGPSDHIDSSVTGVQRFRDTLKIPYKLELKNEPGRTDLKHIVIDGSNVAITHGLKKFFSCRGIAIAVEYFWKLGNRNITVFVPQWRTRRDPNVTEQHFLTQLQELGILSLTPARMVFGERIASHDDRFLLHLADKTGGIIVTNDNFREFVNESVSWREIITKRLLQYTFVGDIFMVPDDPLGRSGPRLEEFLQKEVCLRDMQPLLSALPNVGMFDPSFRVPGTQAASTSHQPPTRIQGAPSSHWLPQQPHFPLLPALPSLQQNLPMPAQRSSAETNELREALLKIFPDSEQRLKIDQILVAHPYMKDLNALSAMVLD
For B1, the binding was “binds”.
